# Source: the supplement of paper PMC11732987, “Enantioselective OTUD7B fragment discovery through chemoproteomics screening and high-throughput optimisation” (Communications Chemistry, 2025)
# Amino acid sequences for entries named in this document (tags omitted). A change or cut given only in a name is not applied to a line headed by its entry. Residues count along the entry.
# UniProt Q06323: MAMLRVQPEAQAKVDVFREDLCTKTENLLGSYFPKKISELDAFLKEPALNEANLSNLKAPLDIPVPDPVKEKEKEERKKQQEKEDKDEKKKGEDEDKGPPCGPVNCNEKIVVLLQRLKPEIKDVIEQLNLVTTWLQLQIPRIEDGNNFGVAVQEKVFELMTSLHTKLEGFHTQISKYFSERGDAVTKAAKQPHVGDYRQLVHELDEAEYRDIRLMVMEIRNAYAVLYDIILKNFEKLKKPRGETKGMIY
# UniProt O00231, whole entry, looked up: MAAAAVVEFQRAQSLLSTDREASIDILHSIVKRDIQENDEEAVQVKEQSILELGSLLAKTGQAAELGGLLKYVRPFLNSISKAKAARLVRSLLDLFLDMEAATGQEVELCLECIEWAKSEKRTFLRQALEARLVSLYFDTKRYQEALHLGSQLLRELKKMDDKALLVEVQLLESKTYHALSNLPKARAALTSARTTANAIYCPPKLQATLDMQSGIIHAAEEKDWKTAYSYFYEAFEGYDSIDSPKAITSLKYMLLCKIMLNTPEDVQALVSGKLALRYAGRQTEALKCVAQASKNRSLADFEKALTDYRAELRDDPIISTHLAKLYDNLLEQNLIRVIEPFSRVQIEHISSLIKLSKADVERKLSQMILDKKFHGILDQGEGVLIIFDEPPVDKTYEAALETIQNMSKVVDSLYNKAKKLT
# UniProt O43502: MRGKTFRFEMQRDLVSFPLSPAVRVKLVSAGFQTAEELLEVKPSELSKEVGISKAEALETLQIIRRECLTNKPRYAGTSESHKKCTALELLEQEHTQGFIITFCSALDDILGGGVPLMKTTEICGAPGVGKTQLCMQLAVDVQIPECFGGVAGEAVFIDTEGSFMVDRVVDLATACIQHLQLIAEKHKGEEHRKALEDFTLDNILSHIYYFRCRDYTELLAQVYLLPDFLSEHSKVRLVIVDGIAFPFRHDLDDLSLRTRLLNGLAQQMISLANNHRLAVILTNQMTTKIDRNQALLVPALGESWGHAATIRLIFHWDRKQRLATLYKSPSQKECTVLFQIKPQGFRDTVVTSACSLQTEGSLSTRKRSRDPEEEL
# UniProt Q15276: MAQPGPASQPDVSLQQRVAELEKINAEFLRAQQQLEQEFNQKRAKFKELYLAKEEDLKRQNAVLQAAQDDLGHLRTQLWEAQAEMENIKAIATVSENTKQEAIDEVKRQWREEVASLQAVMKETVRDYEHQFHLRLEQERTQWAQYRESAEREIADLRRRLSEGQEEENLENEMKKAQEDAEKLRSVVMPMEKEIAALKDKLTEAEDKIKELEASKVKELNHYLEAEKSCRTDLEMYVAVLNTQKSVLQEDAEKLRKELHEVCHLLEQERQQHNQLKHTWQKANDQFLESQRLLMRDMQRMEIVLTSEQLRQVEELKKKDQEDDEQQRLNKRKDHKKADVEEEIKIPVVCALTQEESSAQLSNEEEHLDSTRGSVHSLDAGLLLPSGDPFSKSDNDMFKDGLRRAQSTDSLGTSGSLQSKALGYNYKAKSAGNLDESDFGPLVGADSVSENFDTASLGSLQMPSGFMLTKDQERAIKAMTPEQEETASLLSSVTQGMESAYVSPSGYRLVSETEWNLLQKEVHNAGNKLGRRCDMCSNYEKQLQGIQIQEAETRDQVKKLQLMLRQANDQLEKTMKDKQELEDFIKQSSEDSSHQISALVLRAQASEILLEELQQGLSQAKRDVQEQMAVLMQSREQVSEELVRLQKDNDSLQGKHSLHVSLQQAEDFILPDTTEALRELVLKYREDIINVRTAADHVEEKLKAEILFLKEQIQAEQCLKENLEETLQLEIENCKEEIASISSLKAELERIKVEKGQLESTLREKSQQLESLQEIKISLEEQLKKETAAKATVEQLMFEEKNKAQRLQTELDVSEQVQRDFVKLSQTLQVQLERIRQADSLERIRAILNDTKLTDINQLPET
# UniProt Q9H2M9, 826-858: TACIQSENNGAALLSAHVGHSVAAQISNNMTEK
# UniProt Q96E17: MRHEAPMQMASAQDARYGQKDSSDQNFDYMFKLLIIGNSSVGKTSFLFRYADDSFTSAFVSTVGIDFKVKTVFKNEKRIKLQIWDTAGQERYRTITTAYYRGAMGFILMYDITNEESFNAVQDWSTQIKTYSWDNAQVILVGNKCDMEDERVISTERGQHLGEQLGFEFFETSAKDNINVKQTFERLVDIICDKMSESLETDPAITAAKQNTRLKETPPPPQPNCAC
# UniProt A2A3K4: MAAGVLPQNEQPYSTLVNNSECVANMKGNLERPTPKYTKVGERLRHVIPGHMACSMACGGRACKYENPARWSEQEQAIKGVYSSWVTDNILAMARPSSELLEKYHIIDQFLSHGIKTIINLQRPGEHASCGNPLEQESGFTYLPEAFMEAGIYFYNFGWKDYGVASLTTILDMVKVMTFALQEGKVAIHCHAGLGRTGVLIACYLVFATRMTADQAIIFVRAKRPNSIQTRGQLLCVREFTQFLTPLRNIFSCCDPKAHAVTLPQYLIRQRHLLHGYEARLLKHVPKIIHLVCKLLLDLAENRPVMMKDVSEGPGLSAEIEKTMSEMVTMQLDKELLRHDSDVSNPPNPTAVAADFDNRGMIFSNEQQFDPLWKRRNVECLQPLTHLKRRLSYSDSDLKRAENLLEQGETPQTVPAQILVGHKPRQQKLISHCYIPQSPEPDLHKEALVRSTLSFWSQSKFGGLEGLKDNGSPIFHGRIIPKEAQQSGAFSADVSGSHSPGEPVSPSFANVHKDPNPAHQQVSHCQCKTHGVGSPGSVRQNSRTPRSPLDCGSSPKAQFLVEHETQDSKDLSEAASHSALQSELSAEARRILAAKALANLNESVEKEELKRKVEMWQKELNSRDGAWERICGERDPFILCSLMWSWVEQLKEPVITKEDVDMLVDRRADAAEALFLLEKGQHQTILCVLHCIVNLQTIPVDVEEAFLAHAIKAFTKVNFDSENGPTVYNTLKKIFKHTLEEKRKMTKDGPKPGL
# UniProt Q9Y620: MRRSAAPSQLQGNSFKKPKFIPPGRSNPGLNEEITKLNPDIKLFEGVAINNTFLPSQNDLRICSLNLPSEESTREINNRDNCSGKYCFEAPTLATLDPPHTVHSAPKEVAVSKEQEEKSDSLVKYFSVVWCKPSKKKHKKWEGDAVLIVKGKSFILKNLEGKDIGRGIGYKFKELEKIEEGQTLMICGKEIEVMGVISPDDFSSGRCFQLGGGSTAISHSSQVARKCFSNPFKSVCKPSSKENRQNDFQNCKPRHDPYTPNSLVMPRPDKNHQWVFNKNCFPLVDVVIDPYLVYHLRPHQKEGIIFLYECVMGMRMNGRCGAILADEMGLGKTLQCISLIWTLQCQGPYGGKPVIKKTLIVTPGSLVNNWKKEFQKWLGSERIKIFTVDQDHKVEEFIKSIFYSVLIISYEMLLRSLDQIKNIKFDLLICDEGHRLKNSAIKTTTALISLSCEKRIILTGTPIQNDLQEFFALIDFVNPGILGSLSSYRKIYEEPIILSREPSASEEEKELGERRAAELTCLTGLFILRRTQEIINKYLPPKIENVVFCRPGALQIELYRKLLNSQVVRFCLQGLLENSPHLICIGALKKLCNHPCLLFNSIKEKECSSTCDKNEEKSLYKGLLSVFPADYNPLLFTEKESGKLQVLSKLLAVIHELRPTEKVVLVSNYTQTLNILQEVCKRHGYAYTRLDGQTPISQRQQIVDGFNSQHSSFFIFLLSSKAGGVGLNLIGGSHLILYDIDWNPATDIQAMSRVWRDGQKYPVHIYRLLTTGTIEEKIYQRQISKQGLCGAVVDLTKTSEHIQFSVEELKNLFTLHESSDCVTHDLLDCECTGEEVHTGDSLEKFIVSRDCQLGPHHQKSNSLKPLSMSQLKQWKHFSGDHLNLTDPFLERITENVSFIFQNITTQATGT
# UniProt Q7Z6M1: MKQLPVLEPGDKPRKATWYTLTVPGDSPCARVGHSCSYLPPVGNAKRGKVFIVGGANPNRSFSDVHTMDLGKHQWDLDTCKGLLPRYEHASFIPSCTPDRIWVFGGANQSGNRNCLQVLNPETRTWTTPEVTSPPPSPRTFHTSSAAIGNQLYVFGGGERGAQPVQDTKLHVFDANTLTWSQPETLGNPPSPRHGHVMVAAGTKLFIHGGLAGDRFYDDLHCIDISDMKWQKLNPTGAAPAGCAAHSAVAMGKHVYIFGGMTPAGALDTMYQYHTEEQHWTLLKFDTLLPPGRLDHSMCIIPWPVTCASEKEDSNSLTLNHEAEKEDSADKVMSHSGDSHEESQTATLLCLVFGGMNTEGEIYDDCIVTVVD
# UniProt O75127: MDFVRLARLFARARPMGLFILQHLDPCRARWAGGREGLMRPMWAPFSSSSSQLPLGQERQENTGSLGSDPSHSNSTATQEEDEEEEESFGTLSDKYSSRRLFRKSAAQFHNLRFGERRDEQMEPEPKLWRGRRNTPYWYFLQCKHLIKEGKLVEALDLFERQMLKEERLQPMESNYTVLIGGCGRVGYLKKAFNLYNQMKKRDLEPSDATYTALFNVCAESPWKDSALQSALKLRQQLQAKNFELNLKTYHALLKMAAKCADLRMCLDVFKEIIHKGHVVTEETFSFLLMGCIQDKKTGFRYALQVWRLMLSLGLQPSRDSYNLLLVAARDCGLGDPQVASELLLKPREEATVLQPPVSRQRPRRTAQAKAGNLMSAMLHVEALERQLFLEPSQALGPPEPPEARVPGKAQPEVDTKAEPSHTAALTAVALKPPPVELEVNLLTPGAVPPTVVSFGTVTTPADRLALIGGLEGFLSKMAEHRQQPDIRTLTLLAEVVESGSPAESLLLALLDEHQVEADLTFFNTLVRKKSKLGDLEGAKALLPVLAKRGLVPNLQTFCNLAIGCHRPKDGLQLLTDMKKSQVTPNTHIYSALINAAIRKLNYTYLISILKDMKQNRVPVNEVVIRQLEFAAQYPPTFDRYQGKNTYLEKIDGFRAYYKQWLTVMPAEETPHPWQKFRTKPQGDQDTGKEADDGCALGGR
# UniProt P23470: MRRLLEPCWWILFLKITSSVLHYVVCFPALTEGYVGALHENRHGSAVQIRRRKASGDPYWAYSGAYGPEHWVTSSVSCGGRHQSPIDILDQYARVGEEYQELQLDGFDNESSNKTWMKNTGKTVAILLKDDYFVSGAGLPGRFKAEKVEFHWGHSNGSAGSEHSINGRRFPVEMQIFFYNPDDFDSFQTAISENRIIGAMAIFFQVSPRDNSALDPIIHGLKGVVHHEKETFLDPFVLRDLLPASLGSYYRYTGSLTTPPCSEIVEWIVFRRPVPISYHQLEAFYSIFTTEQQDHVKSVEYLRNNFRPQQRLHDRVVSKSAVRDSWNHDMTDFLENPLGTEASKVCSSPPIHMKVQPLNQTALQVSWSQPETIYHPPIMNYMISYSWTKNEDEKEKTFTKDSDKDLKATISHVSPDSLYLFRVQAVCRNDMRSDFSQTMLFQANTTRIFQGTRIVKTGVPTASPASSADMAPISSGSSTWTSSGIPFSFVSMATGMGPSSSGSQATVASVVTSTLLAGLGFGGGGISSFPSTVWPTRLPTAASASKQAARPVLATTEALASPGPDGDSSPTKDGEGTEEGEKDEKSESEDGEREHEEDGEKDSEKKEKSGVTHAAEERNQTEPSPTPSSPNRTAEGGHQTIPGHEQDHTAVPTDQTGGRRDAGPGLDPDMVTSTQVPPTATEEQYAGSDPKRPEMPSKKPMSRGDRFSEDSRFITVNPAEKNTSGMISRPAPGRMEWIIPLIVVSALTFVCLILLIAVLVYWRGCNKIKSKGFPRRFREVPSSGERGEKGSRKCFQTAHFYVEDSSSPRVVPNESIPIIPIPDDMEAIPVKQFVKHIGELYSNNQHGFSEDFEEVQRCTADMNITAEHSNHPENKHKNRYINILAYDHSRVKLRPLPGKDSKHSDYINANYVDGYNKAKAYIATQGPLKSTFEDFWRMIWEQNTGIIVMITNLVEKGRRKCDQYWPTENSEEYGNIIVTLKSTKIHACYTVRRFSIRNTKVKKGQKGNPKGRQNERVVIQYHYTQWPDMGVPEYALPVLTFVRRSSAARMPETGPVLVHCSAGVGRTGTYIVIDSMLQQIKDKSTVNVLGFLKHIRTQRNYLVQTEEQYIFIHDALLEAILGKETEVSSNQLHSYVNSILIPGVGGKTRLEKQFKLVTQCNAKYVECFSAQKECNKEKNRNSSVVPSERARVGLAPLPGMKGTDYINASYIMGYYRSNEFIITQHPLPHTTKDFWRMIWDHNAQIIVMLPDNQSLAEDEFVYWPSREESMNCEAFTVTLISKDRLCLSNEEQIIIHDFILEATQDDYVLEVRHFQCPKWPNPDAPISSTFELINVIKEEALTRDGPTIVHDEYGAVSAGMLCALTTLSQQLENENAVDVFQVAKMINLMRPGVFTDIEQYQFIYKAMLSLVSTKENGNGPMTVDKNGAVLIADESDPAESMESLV
# This is one part of the list. The data scatter; read single values as rough.
# Tests used:
# [1] = compound: ClCC(=O)N[C@@H]1CCCc2ccccc12; test: log2 mean competition ratio of IA-DTB cysteine labelling (DMSO/compound) (log2 ratio); higher = stronger cysteine engagement by compound; conditions: treatment time: 4 h, cell line lysate: HEK293T
# Experimental: (§1)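 IA-DTB competitive cysteine chemoproteomics in HEK293T RIPA lysate. Lysates were treated with compound 29 or 30 at 50 or 200 µM for 4 h, then IA-DTB (500 µM, 1 h), trypsin-digested, NeutrAvidin-enriched and analysed by diaPASEF. Competition ratio = intensity DMSO / intensity compound (n=4 treated, n=64 DMSO); binding: mean log2 CR ≥ 1 and p ≤ 0.05 plus QC filters. Target is the cysteine site.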
# [2] = compound: ClCC(=O)N[C@H]1CCCc2ccccc12; test: as above; conditions: treatment time: 4 h, cell line lysate: HEK293T
# Experimental: as §1
Target,log2 mean competition ratio ([1]; 50 µM),log2 mean competition ratio ([1]; 200 µM),log2 mean competition ratio ([2]; 50 µM),log2 mean competition ratio ([2]; 200 µM)
"PSME1_(C101,C101,C106,C106) (UniProt Q06323)",0.148,-0.303,-0.204,-0.37
RAD50 C102,0.0267,-0.0384,0.188,0.0243
PSMD11 C202 (UniProt O00231),–,–,-0.364,-0.138
RAD51C C68 (UniProt O43502),–,–,0.182,-0.166
RABEP1 C718 (UniProt Q15276),–,–,0.19,-0.237
RAB3GAP2 C636 (UniProt Q9H2M9),-0.289,0.23,-0.45,0.0633
RAB41 C30,0.491,-0.247,0.532,-0.0412
RAB3C C145 (UniProt Q96E17),-0.108,-0.0204,-0.246,0.23
PTPDC1 C380 (UniProt A2A3K4),–,0.672,-0.0577,0.158
PSMC6 C193 (UniProt P62333),0.488,0.541,0.216,0.499
RABGAP1 C1026 (UniProt Q9Y3P9),–,–,0.813,0.147
RAD54B C227 (UniProt Q9Y620),-0.0105,0.167,-0.26,0.108
PSMD1 C633,–,–,-0.152,-0.374
RABEPK C115 (UniProt Q7Z6M1),–,–,0.247,-0.11
PTCD1 C332 (UniProt O75127),–,–,-0.278,-0.15
PTPRG C1160 (UniProt P23470),–,–,-0.038,0.0299
RAB3GAP2 C828 (UniProt Q9H2M9),–,–,-0.113,-0.15
RAD9A C3 (UniProt Q99638),–,–,0.322,0.0472
PTK7 C524 (UniProt Q13308),–,–,0.186,0.233

# Whole records from above. Values in the order: log2 mean competition ratio ([1]; 50 µM) | log2 mean competition ratio ([1]; 200 µM) | log2 mean competition ratio ([2]; 50 µM) | log2 mean competition ratio ([2]; 200 µM)
# PTPRG C1160 (UniProt P23470) in the list: – | – | -0.038 | 0.0299
# RAD9A C3 (UniProt Q99638) in the list: – | – | 0.322 | 0.0472
